Test system: C2C12 myotubes
Conditions: high value favorable; for % Survival / EC100 min: ratio of in vitro survival to EC100min; for MBD / (100 − % Survival): ratio of maximum block duration to in vitro cytotoxicity

Compound	% Survival / EC100 min	MBD / (100 − % Survival)
CCCCCCCCCCCC[N+](C)(C)C.[Br-] [DDAB, Dodecyl-trimethyl-ammonium Bromide]	5.0	6.4
CCCCCCCC[N+](C)(C)C.[Br-] [OTAB, Octyl-trimethyl-ammonium Bromide]	1.7	7.5
CCCCCCCCCCCCOS(=O)(=O)[O-].[Na+] [SLS, Sodium Dodecyl Sulfate]	5.7	2.9
CCCCCCCCOS(=O)(=O)[O-].[Na+] [SOS, Sodium Octyl Sulfate]	0.2	5.5
polysorbate 20 [TW 20]	24	27
polysorbate 80 [TW 80]	2.0	6.0
